Among the data in PubChem BioAssay AID2685 (National Center for Advancing Translational Sciences (NCATS), 2010) are cell number change and AC50 values, retold here.

This test in a line: qHTS Assay for Lipid Storage Modulators in Drosophila S3 Cells.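 As to cell number change: cells counted by Cell Tracker Red CMTPX staining in the red channel.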 The note with it: BODIPY lipid droplet fluorescence, 18-24 h; for cell number change: measured here: cell count max response, cells fed with added oleic acid. The method, boiled down: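 Laser-scanning cytometry quantifies lipid droplet accumulation (500–530 nm total intensity; droplet/cell object ratio) in oleic acid-fed (400 uM added) Drosophila S3 cells treated with a concentration series. 20 uM Triacsin C defined 100% inhibition.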
In general terms: qHTS replaces the single test concentration by a dilution series.

[1] abbreviates: measured here: lipid fluorescence (Fed channel) AC50, cells fed with added oleic acid.
[2] abbreviates: measured here: cell number channel AC50, cells fed with added oleic acid.

The other results are listed elsewhere or left out. The main result of the screen is listed elsewhere. These columns were measured beside it and carry no call. Compounds called inactive in the main read-out are mostly missing here. The note in brackets gives the kind of curve behind each potency; many fits are weak.

A word on the AC50: it is the midpoint of the concentration-response curve, whichever way the signal moves. A high value points to activity only at high concentration. For `O=S(=O)(/N=C(/Nc1cccc2ccccc12)c1ccccc1)c1ccc(Br)cc1`, the cell number change was -26.1%. The AC50 under setting [1] is 29.1 µM [falling, single point]. With `Cc1nc2ccc(S(=O)(=O)NC(CC(C)C)C(=O)O)cc2s1` (stereo unspecified), the cell number change was 13.5%. Regarding `Cc1cccc(C)c1-n1c(C)nn(-c2ncc(C(F)(F)F)cc2Cl)c1=O`, the cell number change is -46.3%.

On to `CCOC(=S)SCC(=O)Nc1nc(-c2ccc(Br)cc2)cs1`, for which the cell number change was -28.3%.

In the case of `CC(=O)c1cn(CC(=O)Nc2c(C)cccc2C)c2ccccc12`, the cell number change is -21.6%. The AC50 under setting [1] is 5.17 µM [falling, partial curve]. In the case of `O=C1CNC(=O)/C(=C/c2ccco2)N1`, the cell number change stood at 1.04%. Turning to `CCOC(=O)CC1C(=O)NCCN1C(=O)Nc1ccccc1` (stereo unspecified), the cell number change was -20.7%. In addition, the concentration at half-maximal activity (AC50) under setting [2] was 2.31 µM [falling, full curve, poor fit]. For the same molecule, the AC50 under setting [1] is 3.26 µM [falling, full curve]. With `O=C(Nc1ccc(N2CCCCC2)cc1)c1ccc([N+](=O)[O-])o1`, the AC50 under setting [1] is 9.2 µM [falling, partial curve]. With `CN(C)S(=O)(=O)c1cccc(NC(=O)C(c2ccccc2)c2ccccc2)c1`, the cell number change amounted to 29.3%. Moreover, the AC50 under setting [1] was 6.51 µM [rising, single point]. For the molecule `CCOC(=O)c1c2n(c3c(NCc4ccccc4)ncnc13)CCCC2`, the cell number change is -10.5%. Besides, the half-maximal activity concentration (AC50) under setting [2] is 0.00461 µM [rising, full curve, poor fit]. Under setting [1], the AC50 was 29.1 µM [rising, single point]. As for `Cc1ccc(CN(Cc2cccnc2)C(=O)CN2C(=O)COc3ccccc32)o1`, the cell number change amounted to 2.51%. The AC50 under setting [1] was 0.517 µM [rising, full curve, poor fit].

For the molecule `Cc1cc(C)c(S(=O)(=O)N2CCN(C(=O)N3CCOCC3)CC2)c(C)c1`, the half-maximal activity concentration (AC50) under setting [1] was 9.2 µM [falling, partial curve, poor fit]. With `CCCc1ccc2oc(C(=O)N3CCCC3)c(C)c2c1`, the cell number change is -14.7%. Besides, under setting [1], the AC50 is 4.11 µM [falling, full curve, poor fit]. As for `Cc1ccc(NC(=O)/C=C\C(=O)O)c([N+](=O)[O-])c1`, the cell number change was -3.7%. Further, under setting [1], the AC50 was 0.082 µM [rising, full curve, poor fit]. Consider `Cc1nc(S(=O)(=O)Cc2ccc(Cl)cc2)nc2c1CCC2`, for which the cell number change was -48.3%. The same measure, in the same setting: the value for `C/C(=N/NC(=O)CNC(=O)Cc1ccc(Cl)cc1)c1ccco1` was 22.3%. On the same count and under the same terms, for `COCC(C)n1c(COc2ccccc2F)nnc1SCc1c(C)noc1C` (stereo unspecified) the value was 16.8%.

With `COc1ccc(CNS(=O)(=O)CCNC(=O)c2ccc3c(c2)OCO3)cc1`, the cell number change is -17.4%. The AC50 under setting [1] is 4.61 µM [falling, single point]. On to `CC(C)NC(=O)CCS(=O)(=O)c1cccc2nonc12`, for which the cell number change is -97.7%. Under setting [2], the half-maximal activity concentration (AC50) is 29.1 µM [falling, single point]. Consider `Cc1[nH]n(-c2ccc([N+](=O)[O-])cc2)c(=O)c1C=NCCN1CCN(C(=O)c2ccc(Br)cc2)CC1`, for which the cell number change is -8.84%. Besides, the half-maximal activity concentration (AC50) under setting [1] is 0.058 µM [falling, full curve, poor fit]. On to `Nc1nnc(SCC(=O)Nc2cccc(Cl)c2)s1`, for which the cell number change is -17.2%. Moreover, the AC50 under setting [1] is 0.231 µM [rising, full curve, poor fit].

Consider `C=CCn1c(SCC(=O)c2ccc(OC)cc2)nnc1C(C)NC(=O)c1cccs1` (stereo unspecified), for which the cell number change is 2.42%.

As for `COc1ccc(OCC(=O)N2CCN(c3nnc(-c4ccc(C)cc4)c4ccccc34)CC2)cc1`, the cell number change was -12.5%. Moreover, the concentration at half-maximal activity (AC50) under setting [1] was 16.4 µM [falling, partial curve, poor fit].

Regarding `CC(C)(C)c1nn(-c2ccccc2)c2[nH]c(=O)c(CNc3ccc4c(c3)OCCO4)cc12`, the cell number change was -50.8%. Also, the AC50 under setting [2] is 1.3 µM [falling, partial curve]. Also, the AC50 under setting [1] is 0.164 µM [rising, full curve, poor fit]. Turning to `COc1cccc(C(C)NC(=O)Nc2cc(Cl)ccc2OC)c1` (stereo unspecified), the cell number change was -0.769%. Under setting [1], the half-maximal activity concentration (AC50) was 0.891 µM [rising, partial curve].

Consider `CC(=O)Nc1cccc(Oc2cnc3ccccc3n2)c1`, for which the cell number change is 16.3%. Moreover, under setting [1], the AC50 was 29.1 µM [rising, single point]. With `Cc1nc2ccc(NC(=O)CSc3nnc(C)s3)cc2[nH]1`, the cell number change was found to be 1.9%. On the same count and under the same terms, for `O=C(c1cccc(S(=O)(=O)Nc2ccc(F)cc2)c1)N1CCCC1` the value was -1.24%. The same measure, in the same setting: the value for `CCn1nc(C)c(CN2CCC(n3nccc3NC(=O)c3ccccc3OC)CC2)c1C` was 19.8%. Take `N#Cc1nc(-c2ccc(F)cc2)oc1NCc1ccco1`: the cell number change worked out at 6.82%. Further, under setting [2], the AC50 is 0.0731 µM [falling, full curve, poor fit]. Take `COc1ccc(-c2cc3ccccc3oc2=O)cc1NC(=O)c1cccnc1`: the cell number change was 19.2%.

Regarding `Cc1cc(NC(=O)CCC(=O)N(CC(=O)NC2CCCC2)Cc2ccc(F)cc2)no1`, under setting [1], the AC50 is 0.651 µM [falling, single point]. `CN(C(=O)c1cccc(S(=O)(=O)N2CCOCC2)c1)c1c(N)n(Cc2ccccc2)c(=O)[nH]c1=O`: the cell number change is 36.1%. The concentration at half-maximal activity (AC50) under setting [2] was 16.4 µM [rising, single point]. Also, under setting [1], the half-maximal activity concentration (AC50) was 13 µM [rising, partial curve, poor fit]. Take `COc1ccccc1-n1c2c(cc(C(=O)N3CCC(C)CC3)c1=O)C(=O)CC(C)(C)C2`: the cell number change was -36.9%. The AC50 under setting [2] is 5.8 µM [falling, partial curve, poor fit]. The concentration at half-maximal activity (AC50) under setting [1] was 9.2 µM [falling, partial curve]. As to `COc1ccccc1C(=O)C1CCCN(C(=O)c2ccccc2C(C)=O)C1` (stereo unspecified), the cell number change turned out to be 9.04%. For the same molecule, under setting [1], the AC50 is 3.66 µM [falling, single point]. Consider `Cc1cc(=O)n(C)c(=O)n1CCCCCCOc1cccc([N+](=O)[O-])c1`, for which the cell number change is -11.4%. Further, the concentration at half-maximal activity (AC50) under setting [1] was 32.6 µM [falling, single point]. As for `COc1ccccc1N/C(=N/c1nc(C)cc(C)n1)NC(C)=O`, the cell number change is -6.27%. The concentration at half-maximal activity (AC50) under setting [1] is 0.82 µM [rising, full curve, poor fit]. As for `Cn1c(=O)c(C(=O)CN2CC(=O)Nc3ccccc32)c(N)n(Cc2ccccc2)c1=O`, the cell number change was determined as 57.6%. The AC50 under setting [2] is 20.6 µM [rising, single point]. Moreover, under setting [1], the AC50 is 25.9 µM [rising, single point]. Take `S=c1nc(-c2ccccc2Cl)n(Cc2cccnc2)c2c1CCCC2`: the cell number change turned out to be 5.59%. In addition, the AC50 under setting [2] is 6.51 µM [rising, single point]. The AC50 under setting [1] is 6.51 µM [rising, single point]. Turning to `COc1cccc(C2=CC(c3ccccc3)n3nnnc3N2)c1` (stereo unspecified), the half-maximal activity concentration (AC50) under setting [1] is 32.6 µM [rising, single point].
